Data taken from PubChem BioAssay AID258 (DTP/NCI, 2004).
The list does not hold the whole screen: it gathers tests that were run many times, whatever their T/C, doses with no T/C, and many T/C values between a quarter and a half above the control. Further doses and runs are listed elsewhere. T/C: endpoint of the treated group in % of that of the vehicle group. Some entries give survivors of the animals treated and no T/C: the source files T/C as zero there, which appears to mark a toxic dose or a test without result, not a measured value. Some doses without a T/C left all or most animals alive at the check, yet need not have been tolerated: the source hardly ever lists a survival T/C far under the control, and the zero likely stands for such cases as well. Survivors were counted at the toxicity check, usually on the fifth day, unless a day is given; later deaths do not show. Schedule codes are those of the source, taken here to give the interval after Q, in days (D) or hours (H), and the number of doses after X. Some entries hold several experiments; the values are given in rising order. Some schedules carry Z or #; the key to these is not given. Where survival is the endpoint, this PubChem deposit counts one and a half times the control or more as active, and values a quarter to a half above the control carry no call in these data; other NCI protocols may use other cut-offs. Some T/C values carry the count of animals alive at the toxicity check (mostly the fifth day); where none is given, no animal had died by that day.

System: CD2F1 mice, L1210 leukemia sc, survival T/C
Assay: NCI In Vivo Anticancer Drug Screen. Data for tumor model L1210 Leukemia (subcutaneous) in CD2F1 (CDF1) mice
Settings: T/C endpoint: median survival time, higher T/C = longer survival
Method in brief: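 T/C ratio: treated-group survival or tumor size over vehicle-control group measurement, in mice carrying transplanted tumors.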

[1] = dose: 12.5 mg/kg/injection, schedule: Q01DX009 (sc), vehicle: saline
[2] = dose: 400.0 mg/kg/injection, schedule: Q01DX009 (sc), vehicle: saline
[3] = dose: 12.0 mg/kg/injection, schedule: Q01DX009 (sc), vehicle: saline

Nc1nc2c(ncn2C2CC(O)C(CO)O2)c(=O)[nH]1 (stereo not given)
survivor count (dose: 63.0 mg/kg/injection, schedule: Q01DX Z (sc), vehicle: water): 4 of 8
survivor count (dose: 125.0 mg/kg/injection, schedule: Q01DX Z (sc), vehicle: water): 2 of 8
survivor count (dose: 250.0 mg/kg/injection, schedule: Q01DX Z (sc), vehicle: water): 2 of 8
survivor count (dose: 500.0 mg/kg/injection, schedule: Q01DX Z (sc), vehicle: water): 3 of 8

CC(CN1CC(=O)NC(=O)C1)N1CC(=O)NC(=O)C1 (stereo not given)
T/C (dose: 3.75 mg/kg/injection, schedule: Q01DX009 (sc), vehicle: saline with Tween-80): 126 % of control
T/C (dose: 5.0 mg/kg/injection, schedule: Q01DX009 (ip), vehicle: saline with Tween-80): 126 % of control
T/C (dose: 7.5 mg/kg/injection, schedule: Q01DX009 (sc), vehicle: saline with Tween-80): 137 % of control
T/C (dose: 10.0 mg/kg/injection, schedule: Q01DX009 (ip), vehicle: saline with Tween-80): 129 % of control
T/C (dose: 15.0 mg/kg/injection, schedule: Q01DX009 (sc), vehicle: saline with Tween-80): 149 % of control
T/C (dose: 20.0 mg/kg/injection, schedule: Q01DX009 (ip), vehicle: saline with Tween-80): 142 % of control
T/C (dose: 30.0 mg/kg/injection, schedule: Q01DX009 (sc), vehicle: saline with Tween-80, evaluated on day 30): 163 and 196 % of control
T/C (dose: 30.0 mg/kg/injection, schedule: Q01DX009 (sc), vehicle: saline with Tween-80, evaluated on day 45): 161 and 186 % of control
T/C (dose: 30.0 mg/kg/injection, schedule: Q01DX009 (sc), vehicle: saline): 135 % of control
T/C (dose: 40.0 mg/kg/injection, schedule: Q01DX009 (ip), vehicle: saline with Tween-80): 143 % of control
T/C (dose: 40.0 mg/kg/injection, schedule: Q01DX009 (sc), vehicle: saline with Tween-80): 138 % of control
T/C (dose: 60.0 mg/kg/injection, schedule: Q01DX009 (ip), vehicle: saline with Tween-80): 132 % of control
T/C (dose: 60.0 mg/kg/injection, schedule: Q01DX009 (sc), vehicle: saline with Tween-80, evaluated on day 30): 134 % of control
T/C (dose: 60.0 mg/kg/injection, schedule: Q01DX009 (sc), vehicle: saline with Tween-80, evaluated on day 45): 142 % of control
T/C (dose: 60.0 mg/kg/injection, schedule: Q01DX009 (sc), vehicle: saline): 146 % of control
T/C (dose: 80.0 mg/kg/injection, schedule: Q01DX009 (sc), vehicle: saline with Tween-80): 143 % of control
T/C (dose: 180.0 mg/kg/injection, schedule: Q04DX003 (sc), vehicle: Klucel (hydroxypropylcellulose) (HPC)): 125 % of control
T/C (dose: 240.0 mg/kg/injection, schedule: Q01DX009 (sc), vehicle: saline with Tween-80): 137 % of control
T/C (dose: 240.0 mg/kg/injection, schedule: Q01DX009 (sc), vehicle: saline): 127 % of control
T/C (dose: 300.0 mg/kg/injection, schedule: Q04DX003 (sc), vehicle: Klucel (hydroxypropylcellulose) (HPC)): 144 % of control
T/C (dose: 360.0 mg/kg/injection, schedule: Q01DX009 (sc), vehicle: saline with Tween-80): 129 % of control
T/C (dose: 500.0 mg/kg/injection, schedule: Q04DX003 (sc), vehicle: Klucel (hydroxypropylcellulose) (HPC), evaluated on day 7): 142 % of control
T/C (dose: 500.0 mg/kg/injection, schedule: Q04DX003 (sc), vehicle: Klucel (hydroxypropylcellulose) (HPC), evaluated on day 21): 138 % of control

O=P1(NCCCl)OCCCN1CCCl (stereo not given)
survivor count (dose: 6.25 mg/kg/injection, schedule: Q01DX009 (sc), vehicle: saline): 5 of 10
T/C [1]: 146 % of control
survivor count [1]: 5 of 10
T/C (dose: 25.0 mg/kg/injection, schedule: Q01DX009 (ip), vehicle: saline): 141 % of control [9 of 10 alive]
T/C (dose: 25.0 mg/kg/injection, schedule: Q01DX009 (sc), vehicle: saline, evaluated on day 30): 138 and 143 % of control
T/C (dose: 25.0 mg/kg/injection, schedule: Q01DX009 (sc), vehicle: saline, evaluated on day 45): 158 % of control
T/C (dose: 25.0 mg/kg/injection, schedule: Q01DX009 (sc), vehicle: saline, evaluated on day 60): 109 % of control [9 of 10 alive]
T/C (dose: 50.0 mg/kg/injection, schedule: Q01DX009 (sc), vehicle: saline, evaluated on day 30): 165 and 195 % of control
T/C (dose: 50.0 mg/kg/injection, schedule: Q01DX009 (sc), vehicle: saline, evaluated on day 45): 176 % of control
T/C (dose: 50.0 mg/kg/injection, schedule: Q01DX009 (sc), vehicle: saline, evaluated on day 60): 162 % of control
T/C (dose: 200.0 mg/kg/injection, schedule: Q01DX009 (ip), vehicle: saline): 141 % of control
T/C (dose: 200.0 mg/kg/injection, schedule: Q01DX009 (sc), vehicle: saline, evaluated on day 30): 141 and 206 % of control
T/C (dose: 200.0 mg/kg/injection, schedule: Q01DX009 (sc), vehicle: saline, evaluated on day 45): 278 % of control
T/C (dose: 200.0 mg/kg/injection, schedule: Q01DX009 (sc), vehicle: saline, evaluated on day 60): 174 % of control
T/C [2]: 139 % of control
survivor count [2]: 3 of 6
survivor count (dose: 600.0 mg/kg/injection, schedule: Q01DX009 (sc), vehicle: saline): 2 of 6

N[C@@H](Cc1ccc(N(CCCl)CCCl)cc1)C(=O)O
T/C (dose: 2.0 mg/kg/injection, schedule: Q01DX009 (ip), vehicle: suspension in saline): 142 % of control
T/C (dose: 2.5 mg/kg/injection, schedule: Q01DX009 (ip), vehicle: saline, evaluated on day 30): 139 % of control
T/C (dose: 2.5 mg/kg/injection, schedule: Q01DX009 (ip), vehicle: saline, evaluated on day 45): 135 % of control
T/C (dose: 2.5 mg/kg/injection, schedule: Q01DX009 (sc), vehicle: saline, evaluated on day 30): 144 % of control
T/C (dose: 2.5 mg/kg/injection, schedule: Q01DX009 (sc), vehicle: saline, evaluated on day 45): 131 % of control
T/C (dose: 3.33 mg/kg/injection, schedule: Q01DX009 (ip), vehicle: saline): 143 % of control
T/C (dose: 3.33 mg/kg/injection, schedule: Q01DX009 (sc), vehicle: saline): 145 % of control
T/C (dose: 4.0 mg/kg/injection, schedule: Q01DX009 (sc), vehicle: saline with Tween-80): 130 % of control
T/C (dose: 5.0 mg/kg/injection, schedule: Q01DX009 (ip), vehicle: saline, evaluated on day 30): 128 [9 of 10 alive], 168, 170 % of control
T/C (dose: 5.0 mg/kg/injection, schedule: Q01DX009 (ip), vehicle: saline, evaluated on day 40): 146 % of control [8 of 10 alive]
T/C (dose: 5.3 mg/kg/injection, schedule: Q01DX009 (sc), vehicle: saline): 142 % of control
T/C (dose: 7.5 mg/kg/injection, schedule: Q01DX009 (ip), vehicle: saline): 131 % of control
T/C (dose: 8.0 mg/kg/injection, schedule: Q01DX009 (sc), vehicle: saline with Tween-80): 137 % of control
T/C [3]: 129 % of control
survivor count [3]: 8 of 10
survivor count (dose: 18.0 mg/kg/injection, schedule: Q01DX009 (sc), vehicle: saline): 9 of 10
survivor count (dose: 32.0 mg/kg/injection, schedule: Q01DX009 (sc), vehicle: saline with Tween-80): 7 of 10
survivor count (dose: 64.0 mg/kg/injection, schedule: Q01DX009 (sc), vehicle: saline with Tween-80): 9 of 10
survivor count (dose: 128.0 mg/kg/injection, schedule: Q01DX009 (sc), vehicle: saline with Tween-80): 1 of 10 and 3 of 10
survivor count (dose: 256.0 mg/kg/injection, schedule: Q01DX009 (sc), vehicle: saline with Tween-80): 0 of 10

ONc1nc(NO)c2[nH]cnc2n1
T/C (dose: 16.0 mg/kg/injection, schedule: Q01DX Z (sc), vehicle: steroid suspending solution): 125 % of control
